According to the supplement of paper PMC10849652:
This is one part of the list.

The chains behind the UniProt entries cited, without tags or fusion partners. Where a name states a change or a piece, a line headed by the entry shows the natural chain unless it says otherwise.
UniProt O60637: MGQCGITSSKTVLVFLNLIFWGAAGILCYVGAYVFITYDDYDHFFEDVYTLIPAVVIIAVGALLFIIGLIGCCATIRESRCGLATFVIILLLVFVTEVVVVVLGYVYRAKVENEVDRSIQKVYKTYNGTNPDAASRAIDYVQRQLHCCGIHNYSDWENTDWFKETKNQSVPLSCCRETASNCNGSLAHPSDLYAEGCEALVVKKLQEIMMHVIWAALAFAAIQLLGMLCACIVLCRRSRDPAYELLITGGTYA
UniProt Q9BU70: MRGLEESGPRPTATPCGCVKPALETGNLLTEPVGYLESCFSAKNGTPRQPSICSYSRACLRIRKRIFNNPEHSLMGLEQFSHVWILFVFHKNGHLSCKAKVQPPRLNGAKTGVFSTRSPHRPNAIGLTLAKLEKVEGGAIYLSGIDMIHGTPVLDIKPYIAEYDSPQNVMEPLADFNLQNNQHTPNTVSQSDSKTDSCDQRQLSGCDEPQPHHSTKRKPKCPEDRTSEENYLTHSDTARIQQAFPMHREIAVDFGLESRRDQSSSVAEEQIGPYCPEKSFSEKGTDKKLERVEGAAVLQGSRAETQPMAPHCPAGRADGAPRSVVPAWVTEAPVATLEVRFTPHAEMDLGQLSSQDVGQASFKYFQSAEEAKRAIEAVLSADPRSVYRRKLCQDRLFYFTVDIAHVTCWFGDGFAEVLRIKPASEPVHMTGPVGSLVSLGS
UniProt Q8TD43: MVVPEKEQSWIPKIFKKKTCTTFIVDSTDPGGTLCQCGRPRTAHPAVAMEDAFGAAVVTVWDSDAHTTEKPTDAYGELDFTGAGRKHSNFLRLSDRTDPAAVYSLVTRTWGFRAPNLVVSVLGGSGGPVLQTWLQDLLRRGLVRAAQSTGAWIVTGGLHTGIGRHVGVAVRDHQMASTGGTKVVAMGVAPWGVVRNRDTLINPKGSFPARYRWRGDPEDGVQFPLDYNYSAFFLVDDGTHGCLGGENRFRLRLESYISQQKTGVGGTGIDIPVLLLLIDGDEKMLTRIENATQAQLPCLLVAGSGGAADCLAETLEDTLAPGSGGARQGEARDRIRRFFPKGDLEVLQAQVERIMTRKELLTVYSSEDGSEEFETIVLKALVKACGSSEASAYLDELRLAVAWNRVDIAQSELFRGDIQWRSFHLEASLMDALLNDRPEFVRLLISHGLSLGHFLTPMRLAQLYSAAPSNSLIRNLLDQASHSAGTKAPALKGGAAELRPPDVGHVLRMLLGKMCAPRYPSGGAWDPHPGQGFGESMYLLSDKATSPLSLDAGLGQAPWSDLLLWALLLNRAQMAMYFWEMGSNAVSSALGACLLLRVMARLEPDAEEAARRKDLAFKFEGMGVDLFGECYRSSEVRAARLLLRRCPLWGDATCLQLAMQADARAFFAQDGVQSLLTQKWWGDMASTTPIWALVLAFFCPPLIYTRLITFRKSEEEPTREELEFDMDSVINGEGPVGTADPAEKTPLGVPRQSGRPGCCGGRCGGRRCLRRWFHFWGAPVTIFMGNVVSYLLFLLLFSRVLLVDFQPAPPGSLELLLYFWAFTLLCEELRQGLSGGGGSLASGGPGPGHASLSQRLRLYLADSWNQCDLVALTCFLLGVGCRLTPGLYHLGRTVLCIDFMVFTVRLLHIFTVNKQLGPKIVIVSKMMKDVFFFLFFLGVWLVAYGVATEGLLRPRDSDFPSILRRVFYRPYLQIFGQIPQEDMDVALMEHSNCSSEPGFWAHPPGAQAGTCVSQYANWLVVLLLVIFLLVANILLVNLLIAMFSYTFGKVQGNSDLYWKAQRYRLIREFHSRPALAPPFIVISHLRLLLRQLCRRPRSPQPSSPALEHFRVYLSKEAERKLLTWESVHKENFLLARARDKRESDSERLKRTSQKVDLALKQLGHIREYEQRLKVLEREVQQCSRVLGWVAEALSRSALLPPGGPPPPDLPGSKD
UniProt O14717: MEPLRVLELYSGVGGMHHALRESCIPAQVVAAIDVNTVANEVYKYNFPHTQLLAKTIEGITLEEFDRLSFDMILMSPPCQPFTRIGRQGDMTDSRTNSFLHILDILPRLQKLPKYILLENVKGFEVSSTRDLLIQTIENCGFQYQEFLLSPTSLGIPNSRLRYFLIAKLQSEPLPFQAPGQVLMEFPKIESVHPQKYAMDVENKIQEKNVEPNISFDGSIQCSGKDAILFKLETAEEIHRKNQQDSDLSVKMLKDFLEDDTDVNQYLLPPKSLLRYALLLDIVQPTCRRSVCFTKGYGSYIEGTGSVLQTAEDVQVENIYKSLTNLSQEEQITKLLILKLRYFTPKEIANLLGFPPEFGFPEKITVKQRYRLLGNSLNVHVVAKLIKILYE
UniProt P14373: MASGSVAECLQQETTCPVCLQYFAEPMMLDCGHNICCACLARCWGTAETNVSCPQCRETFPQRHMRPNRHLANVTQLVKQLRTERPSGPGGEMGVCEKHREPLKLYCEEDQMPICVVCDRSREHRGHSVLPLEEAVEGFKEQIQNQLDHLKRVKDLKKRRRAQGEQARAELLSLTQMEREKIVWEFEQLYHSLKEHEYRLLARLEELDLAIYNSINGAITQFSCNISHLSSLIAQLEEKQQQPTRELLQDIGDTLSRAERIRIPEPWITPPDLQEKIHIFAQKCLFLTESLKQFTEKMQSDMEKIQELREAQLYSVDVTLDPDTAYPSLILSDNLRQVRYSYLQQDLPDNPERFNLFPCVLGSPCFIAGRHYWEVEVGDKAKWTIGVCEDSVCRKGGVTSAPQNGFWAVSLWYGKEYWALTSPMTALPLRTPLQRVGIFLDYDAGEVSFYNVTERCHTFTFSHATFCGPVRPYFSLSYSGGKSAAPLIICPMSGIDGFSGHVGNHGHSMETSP
UniProt Q9Y2L5: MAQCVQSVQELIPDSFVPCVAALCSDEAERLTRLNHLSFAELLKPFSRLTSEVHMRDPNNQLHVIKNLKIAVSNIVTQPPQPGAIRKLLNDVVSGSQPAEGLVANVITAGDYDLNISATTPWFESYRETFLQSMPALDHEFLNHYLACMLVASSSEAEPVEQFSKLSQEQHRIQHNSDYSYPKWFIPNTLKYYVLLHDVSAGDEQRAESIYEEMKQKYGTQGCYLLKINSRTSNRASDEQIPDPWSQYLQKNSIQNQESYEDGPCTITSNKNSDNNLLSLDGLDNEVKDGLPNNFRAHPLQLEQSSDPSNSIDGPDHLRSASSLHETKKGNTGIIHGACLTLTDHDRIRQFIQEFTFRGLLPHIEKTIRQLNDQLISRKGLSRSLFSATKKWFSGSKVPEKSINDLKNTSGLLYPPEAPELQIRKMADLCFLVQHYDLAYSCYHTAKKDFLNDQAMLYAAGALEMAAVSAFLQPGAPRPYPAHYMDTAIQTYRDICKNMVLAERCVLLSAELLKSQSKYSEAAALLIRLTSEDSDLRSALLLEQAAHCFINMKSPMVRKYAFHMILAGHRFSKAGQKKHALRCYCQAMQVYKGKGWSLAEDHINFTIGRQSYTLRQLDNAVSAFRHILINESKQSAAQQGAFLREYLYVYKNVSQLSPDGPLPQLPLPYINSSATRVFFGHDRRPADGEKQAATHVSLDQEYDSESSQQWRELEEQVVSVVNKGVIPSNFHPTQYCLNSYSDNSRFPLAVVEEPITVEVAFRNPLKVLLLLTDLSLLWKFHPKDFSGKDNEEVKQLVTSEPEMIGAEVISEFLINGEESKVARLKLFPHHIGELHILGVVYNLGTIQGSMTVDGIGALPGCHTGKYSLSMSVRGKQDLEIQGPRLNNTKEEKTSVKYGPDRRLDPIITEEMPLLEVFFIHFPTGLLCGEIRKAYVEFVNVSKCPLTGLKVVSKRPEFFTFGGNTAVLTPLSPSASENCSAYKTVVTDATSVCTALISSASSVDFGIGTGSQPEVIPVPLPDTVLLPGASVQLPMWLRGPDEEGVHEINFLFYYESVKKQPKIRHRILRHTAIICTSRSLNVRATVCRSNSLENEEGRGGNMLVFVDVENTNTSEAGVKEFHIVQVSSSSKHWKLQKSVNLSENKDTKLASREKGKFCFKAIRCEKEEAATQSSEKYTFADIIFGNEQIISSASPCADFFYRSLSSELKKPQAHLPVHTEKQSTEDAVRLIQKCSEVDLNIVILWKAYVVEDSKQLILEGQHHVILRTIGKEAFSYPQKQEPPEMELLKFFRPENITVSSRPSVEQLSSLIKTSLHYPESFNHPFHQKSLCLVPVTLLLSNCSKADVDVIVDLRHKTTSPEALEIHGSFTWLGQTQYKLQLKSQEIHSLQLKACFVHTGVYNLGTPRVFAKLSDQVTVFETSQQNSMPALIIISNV
UniProt Q96QT4: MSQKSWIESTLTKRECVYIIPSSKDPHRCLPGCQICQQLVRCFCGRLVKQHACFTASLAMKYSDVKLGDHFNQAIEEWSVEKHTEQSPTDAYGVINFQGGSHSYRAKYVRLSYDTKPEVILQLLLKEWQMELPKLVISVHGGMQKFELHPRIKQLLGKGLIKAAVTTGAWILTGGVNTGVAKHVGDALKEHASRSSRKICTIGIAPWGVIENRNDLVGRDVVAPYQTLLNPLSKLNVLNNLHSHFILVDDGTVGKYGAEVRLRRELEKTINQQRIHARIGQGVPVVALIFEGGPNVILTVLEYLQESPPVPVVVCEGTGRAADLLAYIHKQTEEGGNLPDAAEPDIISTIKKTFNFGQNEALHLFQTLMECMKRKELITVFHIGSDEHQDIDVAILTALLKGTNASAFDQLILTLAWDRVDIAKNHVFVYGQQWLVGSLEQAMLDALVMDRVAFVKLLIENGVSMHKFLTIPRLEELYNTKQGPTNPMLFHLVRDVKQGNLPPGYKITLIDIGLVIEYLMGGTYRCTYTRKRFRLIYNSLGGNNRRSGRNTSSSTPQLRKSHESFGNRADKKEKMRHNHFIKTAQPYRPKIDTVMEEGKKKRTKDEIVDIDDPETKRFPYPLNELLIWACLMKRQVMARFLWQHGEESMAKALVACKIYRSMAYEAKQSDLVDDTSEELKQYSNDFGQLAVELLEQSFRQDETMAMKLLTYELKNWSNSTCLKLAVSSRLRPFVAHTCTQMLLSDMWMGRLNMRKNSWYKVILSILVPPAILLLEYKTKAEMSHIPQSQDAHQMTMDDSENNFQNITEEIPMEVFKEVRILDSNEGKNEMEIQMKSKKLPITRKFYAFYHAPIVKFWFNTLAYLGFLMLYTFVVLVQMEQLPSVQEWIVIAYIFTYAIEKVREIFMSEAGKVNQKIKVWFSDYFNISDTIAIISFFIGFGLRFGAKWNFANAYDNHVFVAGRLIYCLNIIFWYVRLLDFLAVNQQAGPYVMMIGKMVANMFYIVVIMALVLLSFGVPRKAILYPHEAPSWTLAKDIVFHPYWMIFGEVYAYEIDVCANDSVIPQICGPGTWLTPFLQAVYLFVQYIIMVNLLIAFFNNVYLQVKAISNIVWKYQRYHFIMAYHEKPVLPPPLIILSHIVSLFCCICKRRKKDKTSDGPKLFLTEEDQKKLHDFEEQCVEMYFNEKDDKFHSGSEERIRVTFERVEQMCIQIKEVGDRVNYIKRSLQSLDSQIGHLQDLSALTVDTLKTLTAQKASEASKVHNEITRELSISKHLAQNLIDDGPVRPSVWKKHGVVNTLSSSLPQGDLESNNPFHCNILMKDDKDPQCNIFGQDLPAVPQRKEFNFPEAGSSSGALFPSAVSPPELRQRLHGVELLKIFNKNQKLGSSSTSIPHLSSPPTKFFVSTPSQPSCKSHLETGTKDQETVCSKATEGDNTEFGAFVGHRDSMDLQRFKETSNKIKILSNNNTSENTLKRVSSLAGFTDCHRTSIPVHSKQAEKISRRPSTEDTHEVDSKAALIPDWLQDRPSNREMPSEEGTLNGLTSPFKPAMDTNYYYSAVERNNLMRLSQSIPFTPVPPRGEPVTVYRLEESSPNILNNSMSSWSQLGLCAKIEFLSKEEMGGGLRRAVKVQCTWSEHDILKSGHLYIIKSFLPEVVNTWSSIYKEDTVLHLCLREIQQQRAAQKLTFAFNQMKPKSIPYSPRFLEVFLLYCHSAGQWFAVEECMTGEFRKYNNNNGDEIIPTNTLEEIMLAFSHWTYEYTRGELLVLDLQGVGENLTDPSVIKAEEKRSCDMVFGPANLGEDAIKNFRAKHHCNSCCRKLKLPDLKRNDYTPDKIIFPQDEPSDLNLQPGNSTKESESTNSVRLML
UniProt Q99816: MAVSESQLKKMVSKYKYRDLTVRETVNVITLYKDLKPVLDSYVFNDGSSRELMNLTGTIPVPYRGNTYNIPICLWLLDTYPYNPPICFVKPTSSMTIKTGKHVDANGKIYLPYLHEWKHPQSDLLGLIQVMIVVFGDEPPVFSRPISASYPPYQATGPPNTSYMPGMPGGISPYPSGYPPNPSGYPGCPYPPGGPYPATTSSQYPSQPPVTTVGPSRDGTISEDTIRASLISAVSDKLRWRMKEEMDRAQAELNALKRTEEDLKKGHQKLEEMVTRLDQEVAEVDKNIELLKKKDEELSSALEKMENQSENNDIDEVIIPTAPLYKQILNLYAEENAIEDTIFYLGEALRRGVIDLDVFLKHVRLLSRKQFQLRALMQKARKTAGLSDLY

Columns and labels:
Experiment in all cases: log2 fold change, soluble protein after heating vs DMSO (PISA); higher = thermal stabilisation; K562 lysate, 10 uM; active = over 0.2 and 3.5 SD of the protein, either way, in both replicates (recomputed)
[1] = compound: CC(=O)c1cnc2ccc(-c3cc(Cl)c(O)c(Cl)c3)nc2c1N[C@H]1CC[C@H](CN(C)C)CC1
Summary of the method: (§1)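 Thermal stability, expressed as log-two fold change relative to solvent controls, is given from duplicates. Crude K562 extract in PBS pH 7.4 with 1 mM MgCl2, at 1 mg/mL protein, was treated with 10 μM compound for 30 min and heated in aliquots for 3 min across 48°C-58°C. After pooling, adjustment to 0.5% NP-40 at 4°C and centrifugation at 21,000xg for 90 min, supernatant protein was measured by TMTpro 16plex LC-MS/MS with channel sums equalised.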

ralimetinib = compound: CC(C)(C)Cn1c(N)nc2ccc(-c3[nH]c(C(C)(C)C)nc3-c3ccc(F)cc3)nc21 [ralimetinib]
Summary of the method: as §1

[2] = compound: CC(C)(O)CC(=O)NCCn1ccc2ncnc(Nc3ccc(Oc4cccc(C(F)(F)F)c4)c(Cl)c3)c21
Summary of the method: as §1

[3] = compound: CC(C)C1=C2N=C(C=C(N2N=C1)NCC3=CC=CC=C3)NCCCCCCN
Summary of the method: as §1

[4] = compound: CC1=C(C(CC(=O)N1)C2=CC=C(C=C2)C(F)(F)F)C(=O)NC3=C(C=C4C(=C3)C=NN4)F
Summary of the method: as §1

[5] = compound: CC1=C(C2=C(C=C1)C(=O)C3=CC=CC=C3N2CCCN)C
Summary of the method: as §1

[6] = compound: CC1=C(C=C(C=C1)NC(=O)C2=CC(=CC=C2)N(C)C)NC(=O)C3=CC=C(C=C3)O
Summary of the method: as §1

[7] = compound: CC1=CC=C(C=C1)SC2=C3C=C(SC3=CN=C2)C(=O)N
Summary of the method: as §1

vemurafenib = compound: CCCS(=O)(=O)Nc1ccc(F)c(C(=O)c2c[nH]c3ncc(-c4ccc(Cl)cc4)cc23)c1F [vemurafenib]
Summary of the method: as §1

[8] = compound: CCCS(=O)(=O)Nc1ccc(F)c(C(=O)c2c[nH]c3ncc(Cl)cc23)c1F
Summary of the method: as §1

[9] = compound: CC[C@@H]1C(=O)N(C)c2cnc(Nc3ccc(C(=O)NC4CCN(C)CC4)cc3OC)nc2N1C1CCCC1
Summary of the method: as §1

volasertib = compound: CC[C@@H]1C(=O)N(C)c2cnc(Nc3ccc(C(=O)N[C@H]4CC[C@H](N5CCN(CC6CC6)CC5)CC4)cc3OC)nc2N1C(C)C [volasertib]
Summary of the method: as §1

[10] = compound: CCn1c(C(=O)N(C2CC2)C2CC2)cc2c3c(ncn3C)c(Nc3cc(C)n(C)n3)nc21
Summary of the method: as §1

[11] = compound: CCn1cc(-c2ccnc3[nH]c(-c4cccc(CN(C)C)c4)cc23)c(-c2ccc(NC(=O)N(C)C)cc2)n1
Summary of the method: as §1

[12] = compound: CN1CCC(CNc2ccc3ncc(-c4cccc(OC(F)(F)F)c4)n3n2)CC1
Summary of the method: as §1

saracatinib = compound: CN1CCN(CCOc2cc(OC3CCOCC3)c3c(Nc4c(Cl)ccc5c4OCO5)ncnc3c2)CC1 [saracatinib]
Summary of the method: as §1

ibrutinib = compound: C=CC(=O)N1CCC[C@@H](n2nc(-c3ccc(Oc4ccccc4)cc3)c3c(N)ncnc32)C1 [ibrutinib]
Summary of the method: as §1

[13] = compound: CC1=C(C=C(C=C1)NC(=O)C2=CC(=CC=C2)C(C)(C)C#N)NC3=CC4=C(C=C3)N=CN(C4=O)C
Summary of the method: as §1

barasertib = compound: CCN(CCCOc1ccc2c(Nc3cc(CC(=O)Nc4cccc(F)c4)[nH]n3)ncnc2c1)CCOP(=O)(O)O [barasertib]
Summary of the method: as §1

sotrastaurin = compound: CN1CCN(c2nc(C3=C(c4c[nH]c5ccccc45)C(=O)NC3=O)c3ccccc3n2)CC1 [sotrastaurin]
Summary of the method: as §1

Measured: log2 fold change

TSPAN3 (UniProt O60637)
inactive: [1] 0.008 | ralimetinib -0.069 | [2] -0.025 | [3] 0.05 | [4] -0.173 | [5] -0.099 | [6] 0.135 | [7] -0.04 | vemurafenib -0.075 | [8] -0.052 | [9] 0.01 | volasertib 0.073 | [10] -0.222 | [12] -0.3 | saracatinib -0.038
active: [11] 0.663

TRMO (UniProt Q9BU70)
inactive: ibrutinib 0.178 | [5] -0.103 | [13] -0.07 | vemurafenib -0.086 | barasertib 0.204 | [9] 0.064 | saracatinib -0.184 | sotrastaurin 0.033

TRPM4 (UniProt Q8TD43)
inactive: ibrutinib 0.099 | ralimetinib -0.021 | [2] -0.063 | [3] -0.325 | [5] -0.055 | [13] 0.116 | [6] 0.05 | barasertib 0.456 | [10] 0.066 | [11] -0.598 | [12] 0.156 | saracatinib 0.044 | sotrastaurin 0.11

2 successive entries out of the list so far:
TRMO (UniProt Q9BU70)
inactive: ibrutinib 0.178 | [5] -0.103 | [13] -0.07 | vemurafenib -0.086 | barasertib 0.204 | [9] 0.064 | saracatinib -0.184 | sotrastaurin 0.033

TRPM4 (UniProt Q8TD43)
inactive: ibrutinib 0.099 | ralimetinib -0.021 | [2] -0.063 | [3] -0.325 | [5] -0.055 | [13] 0.116 | [6] 0.05 | barasertib 0.456 | [10] 0.066 | [11] -0.598 | [12] 0.156 | saracatinib 0.044 | sotrastaurin 0.11

(continued)

TRIP12 isoform 2 (UniProt Q14669)
inactive: ibrutinib 0 | [1] -0.031 | ralimetinib 0.109 | [2] 0.044 | [3] -0.028 | [4] -0.004 | [5] 0.066 | [13] 0.058 | [6] -0.012 | [7] 0.031 | vemurafenib 0.014 | [8] 0.068 | barasertib 0.038 | [9] -0.001 | volasertib -0.028 | [10] 0.091 | [11] -0.031 | [12] 0.036 | saracatinib -0.007 | sotrastaurin 0.013

TRIO (UniProt O75962)
inactive: ibrutinib -0.003 | [1] -0.059 | [3] 0 | [4] -0.071 | [5] 0.124 | [13] 0.21 | [7] -0.089 | vemurafenib 0.064 | [8] 0.052 | barasertib 0.034 | [9] -0.005 | volasertib -0.006 | [11] -0.071 | [12] -0.038 | saracatinib -0.023 | sotrastaurin 0.043

TTC28 (UniProt Q96AY4)
inactive: ibrutinib 0.002 | [3] 0.192 | [4] -0.038 | [13] -0.033 | vemurafenib -0.148 | barasertib 0.181 | sotrastaurin -0.031

TTLL12 (UniProt V9GY16)
inactive: ibrutinib -0.32 | ralimetinib -0.339 | [2] -0.165 | [3] -0.333 | [13] 0.031 | [6] -0.009 | vemurafenib 0.261 | barasertib 0.102 | [9] 0.227 | [10] -0.465 | [11] -0.393 | [12] 0.133 | sotrastaurin -0.175

TRDMT1 (UniProt O14717)
inactive: [1] -0.035 | ralimetinib -0.057 | [2] 0.052 | [3] 0.028 | [4] 0.139 | [5] 0.062 | [13] -0.088 | [6] -0.087 | [7] -0.019 | vemurafenib 0.175 | [8] 0.093 | [9] -0.164 | volasertib -0.06 | [10] 0.134 | saracatinib -0.073 | sotrastaurin -0.038

TRIM27 (UniProt P14373)
inactive: ibrutinib 0.036 | ralimetinib 0.07 | [2] -0.056 | [3] 0.08 | [4] 0.207 | [13] 0.026 | [6] 0.07 | vemurafenib 0.191 | barasertib -0.014 | [10] 0 | [11] 0.02 | [12] 0.007 | sotrastaurin -0.02

TRAPPC8 (UniProt Q9Y2L5)
inactive: ibrutinib -0.028 | [1] -0.019 | ralimetinib 0.052 | [2] 0.039 | [3] -0.003 | [4] -0.002 | [5] -0.027 | [13] 0.014 | [6] 0.014 | [7] 0.007 | vemurafenib 0.003 | [8] 0.011 | barasertib 0.018 | [9] -0.049 | volasertib -0.063 | [10] 0.032 | [11] -0.003 | [12] -0.01 | saracatinib -0.021 | sotrastaurin 0.012

TRPM7 (UniProt Q96QT4)
inactive: [1] -0.231 | ralimetinib 0.102 | [2] -0.257 | [4] 0.04 | [5] -0.003 | [13] -0.131 | [6] -0.01 | [7] -0.039 | vemurafenib 0.035 | [8] 0.074 | [9] 0.028 | volasertib -0.028 | [10] 0.081 | [11] 0.152 | [12] -0.145 | saracatinib 0.091 | sotrastaurin 0.03

TRMT6 (UniProt Q9UJA5)
inactive: ibrutinib 0.036 | [1] -0.016 | ralimetinib 0.03 | [2] -0.007 | [3] 0.017 | [4] -0.01 | [5] -0.015 | [13] 0.01 | [6] 0.004 | [7] -0.003 | vemurafenib -0.006 | [8] 0.011 | barasertib -0.024 | [9] 0.007 | volasertib 0.001 | [10] 0.004 | [11] -0.033 | [12] 0.059 | saracatinib 0.009 | sotrastaurin -0.034

TSG101 (UniProt Q99816)
inactive: ibrutinib 0.007 | [1] -0.001 | ralimetinib 0.046 | [2] 0.057 | [3] 0.004 | [4] -0.015 | [5] 0.022 | [13] 0.004 | [6] 0.022 | [7] -0.023 | vemurafenib 0.008 | [8] -0.006 | barasertib 0.011 | [9] 0.023 | volasertib 0.001 | [10] 0 | [11] -0.253 | [12] 0.076 | saracatinib -0.008 | sotrastaurin -0.012
